Publication PMC11745445 (2024)
No constants are given. Whether binding was seen depends on the method and setting. In cells and extracts the contact can be indirect. Some binding calls cover weakened binding; strength is not graded here. Tags and fused reporters may be left off the sequences shown. Each block holds one binder with its values, some of them ahead of it.

Sequences of proteins named here, by UniProt entry; tags and fusion partners are left off. Residues count along the entry.
UniProt Q62151, residues 23-402: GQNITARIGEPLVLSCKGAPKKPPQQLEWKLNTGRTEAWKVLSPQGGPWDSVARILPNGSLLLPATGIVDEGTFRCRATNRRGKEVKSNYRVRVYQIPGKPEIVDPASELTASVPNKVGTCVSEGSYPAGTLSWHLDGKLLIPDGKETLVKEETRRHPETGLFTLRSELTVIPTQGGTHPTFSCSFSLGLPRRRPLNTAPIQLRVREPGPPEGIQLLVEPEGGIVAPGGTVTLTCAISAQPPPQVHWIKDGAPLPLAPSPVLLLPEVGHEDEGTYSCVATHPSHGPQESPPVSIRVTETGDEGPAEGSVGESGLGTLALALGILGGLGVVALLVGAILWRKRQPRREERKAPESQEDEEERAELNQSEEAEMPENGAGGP

Experiments:
[1] = target: RAGE (receptor for advanced glycation end products), endogenous in HT-22 cells (mouse (endogenous in HT-22)) (UniProt Q62151); assay: co-IP; lysate of MKK3-knockdown HT-22 cells re-expressing His-MKK3 wild type or K329A, after high glucose for 24 h; 200 ug protein, antibody or control IgG overnight at 4°C, protein A/G-agarose 2 h; IP and blot with His and RAGE antibodies in both directions
[2] = target: RAGE (receptor for advanced glycation end products), endogenous in the hippocampus of db/db mice (mouse (endogenous in db/db mouse hippocampus)) (UniProt Q62151); assay: co-IP; hippocampal lysate of MKK3-knockdown db/db mice injected with LV-MKK3-His-Wt or -Mut; 200 ug protein, antibody or control IgG overnight at 4°C, protein A/G-agarose 2 h; blots with RAGE and His antibodies

binding [1]: binds
B1: LV-MKK3-His-WT (His-labeled wild-type MKK3) in HT-22 cells (protein, UniProt O09110 1-347)
chain: MESPAASPPASLPQTKGKSKRKKDLRISCVSKPPVSNPTPPRNLDSRTFITIGDRNFEVEADDLVTISELGRGAYGVVEKVRHAQSGTIMAVKRIRATVNTQEQKRLLMDLDINMRTVDCFYTVTFYGALFREGDVWICMELMDTSLDKFYRKVLEKNMKIPEDILGEIAVSIVRALEHLHSKLSVIHRDVKPSNVLINKEGHVKMCDFGISGYLVDSVAKTMDAGCKPYMAPERINPELNQKGYNVKSDVWSLGITMIEMAILRFPYESWGTPFQQLKQVVEEPSPQLPADQFSPEFVDFTSQCLRKNPAERMSYLELMEHPFFTLHKTKKTDIAAFVKEILGEDS

binding [2]: binds
B2: LV-MKK3-His-Wt (His-labeled wild-type MKK3) in the hippocampus of db/db mice (protein, UniProt O09110 1-347)
chain: B1 chain
